Measured values: patent US20120020965A1
No constants are given. Whether binding was seen depends on the method and setting. Some entries that bind do so weakly or less than the wild type. Where a sequence is shown, tags or fusion partners need not be part of it.

How the values were obtained:
[1] = molecular target: T1, human CD180 (human) (UniProt Q99467); assay: binding to human B cells
T1 sequence (looked up): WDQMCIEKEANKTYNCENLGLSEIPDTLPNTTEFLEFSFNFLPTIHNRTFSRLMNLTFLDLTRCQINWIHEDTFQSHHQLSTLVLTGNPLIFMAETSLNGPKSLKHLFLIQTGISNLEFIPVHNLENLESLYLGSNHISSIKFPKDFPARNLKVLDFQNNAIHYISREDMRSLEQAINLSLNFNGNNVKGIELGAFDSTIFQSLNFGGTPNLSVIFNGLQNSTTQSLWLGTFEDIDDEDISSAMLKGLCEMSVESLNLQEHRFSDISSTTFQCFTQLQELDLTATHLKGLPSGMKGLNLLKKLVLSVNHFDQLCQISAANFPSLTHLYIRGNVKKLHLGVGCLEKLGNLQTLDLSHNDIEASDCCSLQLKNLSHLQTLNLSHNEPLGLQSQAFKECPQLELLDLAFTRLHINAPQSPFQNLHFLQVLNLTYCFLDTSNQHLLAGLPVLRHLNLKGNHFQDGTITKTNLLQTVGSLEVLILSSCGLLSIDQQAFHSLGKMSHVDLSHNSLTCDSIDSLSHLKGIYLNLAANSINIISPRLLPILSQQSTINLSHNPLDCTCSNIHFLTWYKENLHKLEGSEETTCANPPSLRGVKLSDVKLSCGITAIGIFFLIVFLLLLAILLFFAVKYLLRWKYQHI

[2] = molecular target: T1, human CD180 (human); assay: binding to human B cells (FIG. 8)
[3] = molecular target: T1, human CD180 (human); assay: binding to an immortalized human B cell line (FIG. 8)

binding [1]: binds
binding [2]: binds
B1: G28-8 scFv-Fc (CD180 specific scFv-Fc constructed from the cloned variable regions of mAb G28-8, altered human IgG1 Fc with P238S, P331S, K322S) (Fc fusion)
scFv: DIQMTQSPASLSASVGETVTITCRASEKIYSYLAWYQQKQGKSPQLLVYNAKTLAEGVPSRFSVSGSGTQFSLRINSLQPEDFGTYYCQHHFGSPRTFGGGTKLEIKDLGGGGSGGGGSGGGGSGGGGSTGEVQLQQSGPELVKPGASMKISCKASGYSFTGYTMNWVKQSHGKTLEWIGLINPYNGVTSYNQKFKDKATLTVDKSSSTAYMELLSLTSEDSAIYYCARDYNYDYFDYWGQGTTLTVSSDLEPKSSDKTHTCPPCPAPELLGGSSVFLFPPKPKDTLMISRTPEVTCVVVDVSQEDPEVQFNWYVDGMEVHNAKTKPREEQFNSTFRVVSVLTVVHQDWLNGKEYKCKVSNKALPASIEKTISKTKGQPREPQVYTLPPSREEMTKNQVSLTCLVKGFYPSDIAVEWESNGQPENNYNTTPPVLDSDGSFSLYSKLTVDKSRWQQGNVFSCSVMHEALHNHYTQKSLSLSPGK
binding [3]: binds
